Measured values from PubChem BioAssay AID445 (National Center for Advancing Translational Sciences (NCATS), 2006).
This is one part of the list. Shown are side measurements of this screen, not its main read-out; they come without a call. The list favours compounds with an active or inconclusive main result. The note in brackets gives the kind of curve behind each potency; many fits are weak.

Assay: IkB Signaling
Settings: ABC-DLBCL IkBa-CBG/CBR dual luciferase ratio (green luciferase fused to IkBa over red control in OCI-Ly3 lymphoma cells), 4 h
Summary of the method: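 Curves were fitted separately to fusion (green), unfused (red) and ratio luminescence, then classed by r2, magnitude and activity. Cells: OCI-Ly3, 4 h compound plus doxycycline at 37C; 10 uM MG-132 defined full response.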

[1] = measured here: control luc red channel unless noted

SMILES: CCN(CCCNC(=O)Cn1ncc2c3ccccc3n(C)c2c1=O)Cc1ccccc1
- AC50 [1]: 25.1 µM [falling, partial curve]

SMILES: O=C(Nc1cc(-c2nc3cc(Cl)ccc3o2)ccc1Cl)c1ccco1
- AC50 [1]: 5.01 µM [falling, partial curve]

SMILES: CCc1ccc(NC(=O)CSc2nc(=O)n(Cc3ccccn3)c3c2CCC3)cc1
- AC50 [1]: 31.6 µM [falling, single point]

SMILES: COc1cccc(C2C(C(=O)Nc3ccc(C)cc3C)=C(C)Nc3c(C(=O)Nc4ccccc4)cnn32)c1 (centres undefined)
- AC50 [1]: 10 µM [falling, partial curve]

SMILES: O=C(O)c1cccc(C(=O)Nc2cccc(NC(=O)C3CCCO3)c2)c1 (centres undefined)
- AC50 [1]: 7.94 µM [falling, partial curve]

SMILES: COc1ccc(NC(=O)c2cc(S(=O)(=O)N3CCOCC3)ccc2OC)cc1
- AC50 [1]: 0.126 µM [falling, full curve, poor fit]

SMILES: Oc1ccc(Cl)cc1Cc1cc(Cl)ccc1O
- AC50 [1]: 3.16 µM [falling, full curve]

SMILES: COc1ccc(-c2onc(C)c2C)cc1S(=O)(=O)Nc1cccc(C#N)c1
- AC50 [1]: 3.16 µM [falling, single point]

SMILES: O=C(NCCc1ccc(Cl)cc1)c1ccc2c(c1)nc1n2CCOC1
- AC50 [1]: 39.8 µM [falling, single point]

SMILES: CC(=O)C1=C(c2ccc(F)cc2)N(C(C)=O)n2c(nnc2C2CCCCC2)S1
- AC50 [1]: 6.31 µM [falling, full curve]

SMILES: CCOc1ccc(C(=O)NCC(c2ccc(Cl)cc2)N2CCCCC2)cc1 (centres undefined)
- AC50 [1]: 31.6 µM [falling, partial curve]

SMILES: COc1ccc(CN(C(=O)c2ccco2)c2ccc(Br)cc2)cc1OC
- AC50 [1]: 39.8 µM [falling, single point]

SMILES: O=C(Cn1ncc2c3ccccc3n(Cc3cccc(Cl)c3)c2c1=O)NCCCN1CCCCC1
- AC50 [1]: 39.8 µM [falling, single point]

SMILES: Cc1ccc(NC(=O)CSc2nc(-c3cccs3)nc3cc(=O)[nH]n23)cc1C
- AC50 [1]: 31.6 µM [falling, single point]

SMILES: Cc1ccc(C)c(N2CCN(C(=O)C3CCN(c4nc(C)cc(C)n4)CC3)CC2)c1
- AC50 [1]: 12.6 µM [falling, partial curve]

SMILES: COC(=O)c1cc(CSc2nc3ccc(C)cc3[nH]2)oc1C
- AC50 [1]: 3.98 µM [falling, partial curve]

SMILES: O=C(NCCc1ccccc1)C1CCN(Cc2cc3ccccc3n2Cc2ccccc2)CC1
- AC50 [1]: 20 µM [falling, partial curve]

SMILES: COc1ccc(-c2cn3cccnc3n2)cc1NC(=O)Nc1cc(C)ccc1C
- AC50 (measured here: IkB-luc green channel): 31.6 µM [rising, partial curve]
- AC50 (measured here: control luc red channel): 31.6 µM [rising, partial curve]

SMILES: CCOc1ccc(-c2cc(C(=O)NC(C)c3ccccc3)c3ccccc3n2)cc1 (centres undefined)
- AC50 [1]: 2 µM [falling, full curve]

SMILES: CCOc1ccc(N2CC(=O)SC2=S)cc1
- AC50 [1]: 25.1 µM [falling, single point]

SMILES: O=C(Nc1ccc(C(=O)N2CCN(c3ccccc3F)CC2)cc1)c1nsc2ccccc12
- AC50 [1]: 0.158 µM [falling, full curve]

SMILES: CCN1CSC(=S)N(Cc2ccc(OC)cc2)C1
- AC50 [1]: 39.8 µM [falling, single point]

SMILES: CCOC(=O)c1ccccc1NC(=O)CSc1nnc(Cc2cccn2C)n1-c1ccc(F)cc1
- AC50 [1]: 15.8 µM [falling, partial curve]

SMILES: COc1ccc2c(CC(=O)NCc3ccc4c(c3)OCO4)coc2c1
- AC50 [1]: 6.31 µM [falling, partial curve]

SMILES: CCc1ccc(NC(=O)Nc2ccccc2OCc2cc(=O)n3ccccc3n2)cc1
- AC50 [1]: 5.01 µM [falling, partial curve]

SMILES: COc1ccc(-c2nnn3c2nc(NCc2ccc(C)cc2)c2ccccc23)cc1
- AC50 [1]: 0.794 µM [falling, single point]

SMILES: O=C(c1cc(-c2ccc(F)cc2)on1)N1CCCC1
- AC50 [1]: 2.51 µM [falling, full curve]

SMILES: CCCCNc1ccc(-c2nc(-c3ccccn3)no2)cc1[N+](=O)[O-]
- AC50 [1]: 0.00794 µM [rising, full curve, poor fit]

SMILES: O=C(COC(=O)C1(c2ccccc2)CC1)N1CCN(c2ccc(F)cc2)CC1
- AC50 [1]: 20 µM [falling, single point]

SMILES: N=c1n(CCN2CCOCC2)c2ccccc2n1CC(=O)c1ccc(Cl)c(Cl)c1
- AC50 [1]: 1 µM [falling, full curve]

SMILES: CCOc1ccccc1N(C(=O)c1snc(C(N)=O)c1N)C(C(=O)NCCC(C)C)c1ccco1 (centres undefined)
- AC50 [1]: 7.94 µM [falling, full curve]

SMILES: CCCc1ccc(S(=O)(=O)N2CCC(c3nnc(-c4cccc(C)c4)o3)CC2)cc1
- AC50 [1]: 39.8 µM [falling, single point]

SMILES: CCn1c(=O)c2cc(C(=O)NCCCN3CCN(c4ccc(F)cc4)CC3)sc2c2ccccc21
- AC50 [1]: 3.98 µM [falling, partial curve]

SMILES: CC(C)Oc1ccc(CNC(=O)c2ccc3c(c2)nc2n3CCCCC2)cc1
- AC50 [1]: 10 µM [falling, partial curve]

SMILES: COc1ccc(C)cc1NC(=O)c1c2c(nc3ccccc13)C(=O)N(C1CCCCC1)C2
- AC50 [1]: 15.8 µM [falling, partial curve]

SMILES: CCOc1ccc(Br)cc1C1C(C(=O)OC)=C(C)NC2=C1C(=O)c1ccccc12 (centres undefined)
- AC50 [1]: 25.1 µM [falling, single point]

SMILES: Cc1ccc(Cl)cc1NC(=O)C(Cc1ccccc1)NS(=O)(=O)c1cccc2nsnc12 (centres undefined)
- AC50 [1]: 3.98 µM [falling, full curve]

SMILES: CCc1c(C)sc2c1CCN(C(=O)Nc1ccccc1C(=O)OC)C2c1ccc(OC)cc1 (centres undefined)
- AC50 [1]: 39.8 µM [falling, single point]

SMILES: COc1ccc(OC)c(C2Nc3c(C)cc(C)cc3-c3cc(C)nn32)c1 (centres undefined)
- AC50 [1]: 25.1 µM [falling, partial curve]

SMILES: Cc1ccc(NS(=O)(=O)c2ccc3c(c2)CC(=O)N3)cc1Cl
- AC50 [1]: 31.6 µM [falling, single point]

SMILES: O=C(NCCC1=CCCCC1)c1ccc(Cl)c(S(=O)(=O)N2CCOCC2)c1
- AC50 [1]: 12.6 µM [falling, partial curve]

SMILES: CC(C)c1ccc(C2=CC(c3cccc(Cl)c3)n3c(nc4ccccc43)N2)cc1 (centres undefined)
- AC50 [1]: 20 µM [falling, single point]

SMILES: CCc1cccc(NC(=O)Cn2c(=O)n(CCC(=O)NCc3ccccc3Cl)c(=O)c3sccc32)c1
- AC50 [1]: 6.31 µM [falling, partial curve]

SMILES: CCOc1ccc2c(c1)C(C)=CC(C)(C)N2
- AC50 [1]: 15.8 µM [rising, full curve] [measured here: IkB-luc green channel]

SMILES: Oc1c(C(c2ccccc2)N2CCOCC2)sc2nc(-c3ccco3)nn12 (centres undefined)
- AC50 [1]: 20 µM [rising, single point]

SMILES: Nc1c(C(=O)Nc2cccc(F)c2)nnn1-c1cccc(C(F)(F)F)c1
- AC50 [1]: 0.2 µM [rising, full curve]

SMILES: Cc1cc(C)cc(NC(=O)c2sc3nc4n(c(=O)c3c2C)N=C(c2ccccc2)CS4)c1
- AC50 [1]: 0.0631 µM [falling, full curve, poor fit]

SMILES: CCOc1ccc(N2CC(c3nc4ccccc4n3CCCCOc3ccc(OC)cc3)CC2=O)cc1 (centres undefined)
- AC50 [1]: 15.8 µM [falling, partial curve]

SMILES: COc1ccc(C2=C(C)C(=O)N(Cc3ccc(C(=O)NC(C)c4ccccc4)cc3)S2(=O)=O)cc1 (centres undefined)
- AC50 [1]: 10 µM [falling, partial curve]

SMILES: Cc1c(C(=O)O)cnc2cc(-c3ccc(Cl)cc3)nn12
- AC50 [1]: 3.98 µM [falling, partial curve]

SMILES: Cc1cccc(N2C(=O)CSC23C(=O)N(CC(=O)Nc2cccc(Cl)c2)c2ccccc23)c1 (centres undefined)
- AC50 [1]: 12.6 µM [falling, partial curve]

SMILES: O=C(NC1CCCCCC1)C1c2ccccc2C(=O)N1Cc1ccc(F)cc1 (centres undefined)
- AC50 [1]: 0.631 µM [falling, partial curve]

SMILES: O=C(NCc1ccco1)C(c1cccs1)N(C(=O)C1COc2ccccc2O1)c1cccc(O)c1 (centres undefined)
- AC50 [1]: 25.1 µM [falling, single point]

SMILES: COc1ccccc1C(=O)NCCn1cc(SCC(=O)Nc2nnc(C)s2)c2ccccc21
- AC50 [1]: 31.6 µM [falling, single point]

SMILES: Cc1nc2ccccc2n1CCc1nc2c3ccccc3nc(SCC(=O)Nc3cccc(C(F)(F)F)c3)n2n1
- AC50 [1]: 12.6 µM [falling, partial curve]

SMILES: Cc1cc(C)nc(NS(=O)(=O)c2ccc(NC(=O)c3ccccc3O)cc2)n1
- AC50 [1]: 5.01 µM [rising, partial curve]

SMILES: CCCCOc1ccc(C(=O)N2CC(=O)Nc3ccc(Br)cc3C2c2ccc(F)cc2)cc1 (centres undefined)
- AC50 [1]: 7.94 µM [falling, partial curve]

SMILES: COc1ccc(Br)cc1Cn1nnc(C(=O)Nc2ccc(C)cc2C)c1N
- AC50 [1]: 39.8 µM [falling, single point]

SMILES: Cc1cc(C)cc(-n2c(SCC(=O)N3CCCC3)nc3c([nH]c4ccccc43)c2=O)c1
- AC50 [1]: 2.51 µM [rising, full curve, poor fit]

SMILES: Cn1c(=O)n(-c2ccc3c(c2)OCO3)c2nc(-c3ccc(Cl)cc3)nc(C(N)=O)c21
- AC50 [1]: 31.6 µM [rising, single point]

SMILES: O=C(Cn1nc(-c2ccccc2)c2cnc3ccccc3c21)Nc1ccccc1
- AC50 [1]: 10 µM [falling, partial curve]

SMILES: Cc1ccc(Cn2nnc3sc4c(c3c2=O)CCC(C)C4)cc1 (centres undefined)
- AC50 [1]: 0.398 µM [rising, full curve, poor fit]

SMILES: Cc1cccc(N2CCN(C(=O)Cn3ccc4ccccc4c3=O)CC2)c1C
- AC50 [1]: 12.6 µM [falling, partial curve]
